Data as given in PubChem BioAssay AID1259254 (NCATS, 2017)
Here is one part, drawn at random, of about 59,000 deposited reagents. In the full data, about 1,550 (2.6%) are marked active. 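G2 share is only a proxy for re-replication; each gene was hit by three separate siRNAs, and active genes were retested.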 Raw values are not corrected between plates. A number with no mark means an inactive call. Reagents against one gene are numbered here. Not given: the amount of reagent.

Aim: 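Genome-wide screen for genes that prevent DNA re-replication in cancer cells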 (primary screen)
System: human HCT116 colorectal cancer cells
Knock-down reagent: single siRNA against human genes
Timing: 3 days
Measured: 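Nuclei stained with Hoechst and imaged; cell-cycle phase assigned by DNA content; G2 share scaled per plate, non-targeting siRNA 0%, GMNN siRNA 100%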
Direction: G2 robust z-score and G2 cells, % of GMNN control: higher = more G2 cells, more excess DNA replication; raw share of cells in G2: higher = larger share of cells with G2 DNA content
Active means: 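An siRNA counts as active if its G2 robust z-score lies at least 5 MADs above the screen median; here such calls match roughly 38% of GMNN control or more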

gene	siRNA no.	G2 robust z-score	G2 cells, % of GMNN control	raw share of cells in G2 (%)
CREB3L2	1	0.404	5.81	8.05
CREB3L2	2	1.23	11.6	8.45
CREB3L2	3	0.636	7.45	6.93
CACHD1	1	-0.803	-2.69	4.31
CACHD1	2	1.03	10.2	8.24
CACHD1	3	-0.438	-0.111	4.33
NT5E	1	1.57	14	9.36
NT5E	2	0.903	9.32	7.11
NT5E	3	-1.25	-5.8	1.75
COQ2	1	-1.27	-6	3.44
COQ2	2	-0.734	-2.2	3.46
COQ2	3	-1	-4.08	2.65
SYT12	1	0.365	5.53	4.99
SYT12	2	4.69	36	15.7
SYT12	3	0.04	3.25	4.66
KCTD11	1	1.8	15.6	8.46
KCTD11	2	0.672	7.7	5.84
KCTD11	3	1.2	11.4	7.54
MED11	1	0.29	5.01	5.63
MED11	2	0.799	8.59	6.93
MED11	3	2.67	21.7	13.8
RASL11B	1	-1.04	-4.34	2.81
RASL11B	2	-1.06	-4.46	2.6
RASL11B	3	-0.0192	2.83	6.82
SIGMAR1	1	1.7	14.9	12.4
SIGMAR1	2	1.55	13.8	8.32
SIGMAR1	3	3.28	26	17
REG4	1	-0.884	-3.26	3.02
REG4	2	-0.654	-1.64	2.97
REG4	3	0.456	6.18	4.28

Limited to “G2 robust z-score” (4 entries from above):
COQ2 #1 = -1.27
COQ2 #2 = -0.734
COQ2 #3 = -1
SYT12 #1 = 0.365

Further records follow:
gene	siRNA no.	G2 robust z-score	G2 cells, % of GMNN control	raw share of cells in G2 (%)
RERG	1	-0.37	0.365	4.62
RERG	2	0.133	3.9	6.64
RERG	3	0.0033	2.99	7.06
CFL1	1	8.26 (active)	61.1	26.8
CFL1	2	1.39	12.7	9.64
CFL1	3	1.3	12.1	8.28
VAMP1	1	0.295	5.04	7.37
VAMP1	2	-0.628	-1.45	3.32
VAMP1	3	1.76	15.4	8.79
ZEB1	1	-0.856	-3.06	2.25
ZEB1	2	0.275	4.9	7.14
ZEB1	3	-0.599	-1.25	2.66
FRA10AC1	1	-0.353	0.485	4.29
FRA10AC1	2	-1.15	-5.1	1.81
FRA10AC1	3	1.6	14.2	5.98
MAPK8IP1	1	-1.19	-5.39	1.36
MAPK8IP1	2	-0.23	1.35	5.71
MAPK8IP1	3	-0.682	-1.83	4.01
TRIM69	1	4.03	31.4	20.9
TRIM69	2	4.28	33.1	16.8
TRIM69	3	-0.904	-3.39	3.28
SELENOH	1	2.3	19.2	10.6
SELENOH	2	0.266	4.84	4.92
SELENOH	3	-0.236	1.3	3.66
EMD	1	1.58	14.1	9.03
EMD	2	-0.879	-3.21	3.79
EMD	3	-0.912	-3.45	2.82
CYP2C9	1	-0.204	1.53	4.62
CYP2C9	2	2.68	21.8	12.7
CYP2C9	3	-0.392	0.207	5.07
LONRF1	1	-0.524	-0.717	5.34
LONRF1	2	0.586	7.09	8.01
LONRF1	3	-0.192	1.62	5.09
IL13	1	1.47	13.3	10.8
IL13	2	3.39	26.8	14
IL13	3	-0.227	1.37	5.54
FNDC3A	1	4.44	34.2	18.4
FNDC3A	2	0.784	8.49	7.64
FNDC3A	3	0.349	5.42	5.2
